At least one structure is not confirmed: it was looked up by name or label, or the drawing left a doubt.
What was measured:
T. gondii tachyzoites [1] = test: Extracellular tachyzoites pre-treated with GA, washed, inoculated onto host cell monolayers under bradyzoite conditions; assay type: cell-based, Toxoplasma gondii; conditions: extracellular tachyzoites treated 2 hours with GA
T. gondii tachyzoites [2] = conditions: in the presence of GA; cited from earlier work

COC1=C2C[C@@H](C)C[C@H](OC)[C@H](O)[C@@H](C)/C=C(\C)[C@H](OC(N)=O)[C@@H](OC)/C=C\C=C(/C)C(=O)NC(=CC1=O)C2=O [GA, geldanamycin A]
level of invasion (T. gondii tachyzoites [1]): decreased level of invasion | development into bradyzoites (T. gondii tachyzoites [1]; bradyzoite conditions): developed into bradyzoites | entry of tachyzoites to the host cells (T. gondii tachyzoites [2]): reduced | growth rate of tachyzoites (T. gondii tachyzoites [2]): reduced

Source: patent publication US7968096B2, “Methods and compositions for treating toxoplasma” (priority 2005, dated 2011)
